Reference: the supplement of paper PMC10849652
The list shows a part of the results.

Sequences of proteins named here, by UniProt entry; tags and fusion partners are left off. A change or cut given only in a name is not applied to a line headed by its entry.
UniProt Q9UGC7: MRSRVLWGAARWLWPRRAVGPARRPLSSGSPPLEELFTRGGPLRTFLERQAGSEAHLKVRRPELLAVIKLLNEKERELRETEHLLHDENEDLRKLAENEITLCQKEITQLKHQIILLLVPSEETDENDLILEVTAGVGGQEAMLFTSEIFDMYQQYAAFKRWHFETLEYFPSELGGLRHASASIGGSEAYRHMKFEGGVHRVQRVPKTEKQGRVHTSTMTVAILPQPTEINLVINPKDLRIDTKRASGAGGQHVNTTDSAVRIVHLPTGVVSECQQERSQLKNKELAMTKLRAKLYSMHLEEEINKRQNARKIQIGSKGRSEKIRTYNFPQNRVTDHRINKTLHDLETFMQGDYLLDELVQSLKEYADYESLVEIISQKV
UniProt P03915, whole entry, looked up: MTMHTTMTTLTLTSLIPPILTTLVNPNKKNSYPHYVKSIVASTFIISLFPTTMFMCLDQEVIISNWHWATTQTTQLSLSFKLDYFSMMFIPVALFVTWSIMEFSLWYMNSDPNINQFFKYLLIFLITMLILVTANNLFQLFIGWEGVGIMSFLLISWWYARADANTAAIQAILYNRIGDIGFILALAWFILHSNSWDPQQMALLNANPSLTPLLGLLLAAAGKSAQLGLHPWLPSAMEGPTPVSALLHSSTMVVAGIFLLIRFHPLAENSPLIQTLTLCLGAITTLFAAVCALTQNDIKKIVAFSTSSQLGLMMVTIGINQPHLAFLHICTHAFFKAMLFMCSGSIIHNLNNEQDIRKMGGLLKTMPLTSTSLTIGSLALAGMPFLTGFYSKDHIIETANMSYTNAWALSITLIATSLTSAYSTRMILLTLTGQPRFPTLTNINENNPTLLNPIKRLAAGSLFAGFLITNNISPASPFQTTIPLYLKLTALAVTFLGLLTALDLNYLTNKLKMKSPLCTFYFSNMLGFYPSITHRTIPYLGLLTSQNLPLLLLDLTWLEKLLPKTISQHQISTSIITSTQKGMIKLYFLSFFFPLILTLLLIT
UniProt Q9UBK8: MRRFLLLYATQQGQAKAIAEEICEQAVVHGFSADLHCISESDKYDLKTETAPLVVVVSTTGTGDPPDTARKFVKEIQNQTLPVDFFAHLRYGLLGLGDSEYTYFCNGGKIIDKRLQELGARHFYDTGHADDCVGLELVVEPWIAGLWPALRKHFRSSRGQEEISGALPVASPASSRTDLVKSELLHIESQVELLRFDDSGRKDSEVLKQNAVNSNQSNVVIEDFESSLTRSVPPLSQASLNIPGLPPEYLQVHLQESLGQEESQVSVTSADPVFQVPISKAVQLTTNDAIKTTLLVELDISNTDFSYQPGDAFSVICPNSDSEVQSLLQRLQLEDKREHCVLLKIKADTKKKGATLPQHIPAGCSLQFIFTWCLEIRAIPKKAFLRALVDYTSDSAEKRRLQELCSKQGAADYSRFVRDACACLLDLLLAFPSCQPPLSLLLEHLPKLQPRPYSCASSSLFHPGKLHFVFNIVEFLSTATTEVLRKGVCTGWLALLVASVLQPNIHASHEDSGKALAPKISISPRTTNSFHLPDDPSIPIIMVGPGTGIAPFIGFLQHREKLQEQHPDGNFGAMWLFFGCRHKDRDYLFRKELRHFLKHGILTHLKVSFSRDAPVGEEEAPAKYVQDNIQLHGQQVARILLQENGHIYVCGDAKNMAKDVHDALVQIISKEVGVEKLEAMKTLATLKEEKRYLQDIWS
UniProt Q13330: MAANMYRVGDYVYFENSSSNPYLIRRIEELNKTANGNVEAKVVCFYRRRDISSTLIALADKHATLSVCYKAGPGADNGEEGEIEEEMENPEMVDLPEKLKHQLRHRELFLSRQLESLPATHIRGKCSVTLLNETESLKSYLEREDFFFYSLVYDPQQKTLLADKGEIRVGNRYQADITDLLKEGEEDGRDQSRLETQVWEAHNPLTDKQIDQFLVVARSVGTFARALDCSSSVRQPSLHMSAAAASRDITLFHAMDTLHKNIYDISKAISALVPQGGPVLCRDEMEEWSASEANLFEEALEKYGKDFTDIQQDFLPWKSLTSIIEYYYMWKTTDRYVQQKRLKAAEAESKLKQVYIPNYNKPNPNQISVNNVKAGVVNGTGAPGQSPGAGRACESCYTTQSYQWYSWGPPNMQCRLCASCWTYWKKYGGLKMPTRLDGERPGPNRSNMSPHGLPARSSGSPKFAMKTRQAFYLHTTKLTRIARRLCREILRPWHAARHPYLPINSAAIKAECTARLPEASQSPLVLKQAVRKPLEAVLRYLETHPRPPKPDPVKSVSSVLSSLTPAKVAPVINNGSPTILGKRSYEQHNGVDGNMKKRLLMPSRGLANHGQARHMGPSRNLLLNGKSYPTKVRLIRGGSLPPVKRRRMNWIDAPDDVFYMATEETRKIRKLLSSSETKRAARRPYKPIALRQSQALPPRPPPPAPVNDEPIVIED
UniProt Q99417: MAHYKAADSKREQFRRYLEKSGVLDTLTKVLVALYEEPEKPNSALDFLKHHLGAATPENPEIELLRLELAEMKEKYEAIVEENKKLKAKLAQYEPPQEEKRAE
UniProt P13640: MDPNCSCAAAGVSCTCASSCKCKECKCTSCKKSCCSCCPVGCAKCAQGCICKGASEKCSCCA
UniProt Q765P7: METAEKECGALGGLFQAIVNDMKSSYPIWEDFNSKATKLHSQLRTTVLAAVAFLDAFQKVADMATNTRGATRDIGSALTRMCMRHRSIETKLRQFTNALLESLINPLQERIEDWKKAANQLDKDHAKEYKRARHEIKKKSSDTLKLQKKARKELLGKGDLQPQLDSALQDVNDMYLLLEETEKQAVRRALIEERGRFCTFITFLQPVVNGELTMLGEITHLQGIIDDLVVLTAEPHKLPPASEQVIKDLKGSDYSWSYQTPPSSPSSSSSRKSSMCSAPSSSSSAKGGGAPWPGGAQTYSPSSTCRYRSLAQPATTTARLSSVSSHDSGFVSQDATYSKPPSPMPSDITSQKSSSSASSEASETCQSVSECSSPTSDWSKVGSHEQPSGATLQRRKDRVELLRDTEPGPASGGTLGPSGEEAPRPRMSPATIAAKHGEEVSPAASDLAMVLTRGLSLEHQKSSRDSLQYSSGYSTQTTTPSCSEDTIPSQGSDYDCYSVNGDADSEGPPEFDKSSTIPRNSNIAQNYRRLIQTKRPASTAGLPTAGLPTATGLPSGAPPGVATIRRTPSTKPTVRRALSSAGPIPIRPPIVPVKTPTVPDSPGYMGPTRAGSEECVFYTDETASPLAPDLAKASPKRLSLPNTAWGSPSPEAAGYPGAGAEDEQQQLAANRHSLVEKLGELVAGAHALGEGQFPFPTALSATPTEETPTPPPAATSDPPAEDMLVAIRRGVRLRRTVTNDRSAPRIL
UniProt O00159, whole entry, looked up: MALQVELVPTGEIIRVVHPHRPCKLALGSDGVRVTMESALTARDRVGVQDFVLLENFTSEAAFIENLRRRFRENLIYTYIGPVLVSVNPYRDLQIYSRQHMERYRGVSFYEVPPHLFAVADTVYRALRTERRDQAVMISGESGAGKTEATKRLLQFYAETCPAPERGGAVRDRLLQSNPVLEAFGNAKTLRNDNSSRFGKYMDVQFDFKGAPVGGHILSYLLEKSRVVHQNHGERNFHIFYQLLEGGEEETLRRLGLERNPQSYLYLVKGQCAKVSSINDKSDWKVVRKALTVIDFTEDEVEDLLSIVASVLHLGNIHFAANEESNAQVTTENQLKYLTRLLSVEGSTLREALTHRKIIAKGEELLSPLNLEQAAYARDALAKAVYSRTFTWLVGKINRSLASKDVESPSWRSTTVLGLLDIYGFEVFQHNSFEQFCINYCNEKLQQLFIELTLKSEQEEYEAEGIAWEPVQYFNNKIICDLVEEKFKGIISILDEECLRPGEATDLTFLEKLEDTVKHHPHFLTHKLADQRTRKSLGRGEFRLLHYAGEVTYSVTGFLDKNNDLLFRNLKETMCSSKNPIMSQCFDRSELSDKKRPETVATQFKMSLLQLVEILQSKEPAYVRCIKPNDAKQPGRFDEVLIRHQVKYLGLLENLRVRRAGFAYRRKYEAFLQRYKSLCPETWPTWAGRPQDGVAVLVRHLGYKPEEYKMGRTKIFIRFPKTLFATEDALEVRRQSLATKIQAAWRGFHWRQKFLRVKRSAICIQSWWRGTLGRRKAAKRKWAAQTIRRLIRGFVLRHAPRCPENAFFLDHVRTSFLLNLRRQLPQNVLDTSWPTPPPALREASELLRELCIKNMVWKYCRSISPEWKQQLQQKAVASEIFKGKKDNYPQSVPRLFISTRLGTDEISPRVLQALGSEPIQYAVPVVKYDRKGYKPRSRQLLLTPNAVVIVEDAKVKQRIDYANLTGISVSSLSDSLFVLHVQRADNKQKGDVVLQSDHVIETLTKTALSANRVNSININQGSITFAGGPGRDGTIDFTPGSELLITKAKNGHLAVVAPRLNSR
UniProt P58546, whole entry, looked up: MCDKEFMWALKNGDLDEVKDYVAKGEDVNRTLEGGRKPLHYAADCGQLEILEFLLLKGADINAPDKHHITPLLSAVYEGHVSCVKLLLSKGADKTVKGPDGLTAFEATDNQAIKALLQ
UniProt P00403, whole entry, looked up: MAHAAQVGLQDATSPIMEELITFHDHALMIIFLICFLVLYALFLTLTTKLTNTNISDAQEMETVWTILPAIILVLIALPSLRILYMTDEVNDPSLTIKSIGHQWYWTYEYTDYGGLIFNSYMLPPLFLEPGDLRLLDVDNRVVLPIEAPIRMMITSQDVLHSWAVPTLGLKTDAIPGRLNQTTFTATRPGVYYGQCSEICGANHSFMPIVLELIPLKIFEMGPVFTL
UniProt Q15390: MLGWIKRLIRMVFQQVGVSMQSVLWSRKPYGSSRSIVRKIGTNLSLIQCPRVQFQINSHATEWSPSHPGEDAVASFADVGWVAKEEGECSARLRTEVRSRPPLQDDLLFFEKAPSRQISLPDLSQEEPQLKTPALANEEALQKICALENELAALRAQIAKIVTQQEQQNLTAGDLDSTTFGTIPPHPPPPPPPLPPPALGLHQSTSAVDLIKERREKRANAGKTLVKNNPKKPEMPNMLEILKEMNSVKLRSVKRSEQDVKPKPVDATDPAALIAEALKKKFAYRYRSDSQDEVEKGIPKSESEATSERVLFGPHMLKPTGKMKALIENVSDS
UniProt Q15800: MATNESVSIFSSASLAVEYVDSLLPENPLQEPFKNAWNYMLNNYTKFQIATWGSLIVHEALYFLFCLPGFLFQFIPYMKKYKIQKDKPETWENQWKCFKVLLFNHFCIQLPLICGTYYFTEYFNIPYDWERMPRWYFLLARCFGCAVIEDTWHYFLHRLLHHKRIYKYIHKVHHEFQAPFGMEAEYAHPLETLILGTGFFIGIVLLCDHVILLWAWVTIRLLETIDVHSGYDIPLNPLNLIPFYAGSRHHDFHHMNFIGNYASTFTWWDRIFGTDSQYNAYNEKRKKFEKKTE
UniProt Q13614, whole entry, looked up: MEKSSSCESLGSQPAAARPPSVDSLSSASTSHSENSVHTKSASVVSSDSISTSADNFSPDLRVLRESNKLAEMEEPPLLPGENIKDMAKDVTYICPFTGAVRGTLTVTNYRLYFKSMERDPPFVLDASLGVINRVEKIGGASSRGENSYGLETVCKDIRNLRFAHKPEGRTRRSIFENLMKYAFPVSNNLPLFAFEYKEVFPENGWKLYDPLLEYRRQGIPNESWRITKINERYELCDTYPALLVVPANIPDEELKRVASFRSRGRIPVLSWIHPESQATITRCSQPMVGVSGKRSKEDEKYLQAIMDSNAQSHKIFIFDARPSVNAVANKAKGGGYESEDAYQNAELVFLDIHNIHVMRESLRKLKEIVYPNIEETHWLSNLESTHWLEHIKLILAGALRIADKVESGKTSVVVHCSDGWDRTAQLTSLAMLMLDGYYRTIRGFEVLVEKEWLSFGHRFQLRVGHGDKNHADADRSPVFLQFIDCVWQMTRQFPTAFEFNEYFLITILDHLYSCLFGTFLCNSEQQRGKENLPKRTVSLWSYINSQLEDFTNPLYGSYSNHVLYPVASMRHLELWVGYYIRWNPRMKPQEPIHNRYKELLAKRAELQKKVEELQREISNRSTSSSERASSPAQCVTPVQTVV
UniProt P26038, whole entry, looked up: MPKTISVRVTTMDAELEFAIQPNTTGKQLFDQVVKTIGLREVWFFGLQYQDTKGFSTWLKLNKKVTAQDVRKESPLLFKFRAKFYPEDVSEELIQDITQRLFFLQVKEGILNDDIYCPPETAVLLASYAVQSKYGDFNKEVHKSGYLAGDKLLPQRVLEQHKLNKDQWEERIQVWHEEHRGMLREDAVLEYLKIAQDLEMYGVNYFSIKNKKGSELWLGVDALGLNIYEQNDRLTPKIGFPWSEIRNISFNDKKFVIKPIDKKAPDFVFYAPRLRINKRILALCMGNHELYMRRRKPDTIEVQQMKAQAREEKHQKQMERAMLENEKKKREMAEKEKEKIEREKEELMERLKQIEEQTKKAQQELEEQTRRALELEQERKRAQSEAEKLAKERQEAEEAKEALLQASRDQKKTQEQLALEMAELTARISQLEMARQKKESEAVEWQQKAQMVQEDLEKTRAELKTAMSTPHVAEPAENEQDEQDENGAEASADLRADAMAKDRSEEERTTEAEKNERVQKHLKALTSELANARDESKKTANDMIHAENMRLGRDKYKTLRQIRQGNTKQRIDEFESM

compound: c1cn2cc(-c3ccc4cn[nH]c4c3)nc(Nc3ccc(N4CCOCC4)cc3)c2n1 [entospletinib]; assay: log2 fold change, soluble protein after heating vs DMSO (PISA); higher = thermal stabilisation; K562 cells, 10 uM, 30 min; active = over 0.2 and 3.5 SD of the protein, either way, in both replicates (recomputed)
Method in brief: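 K562 cells at 2×10^6 cells/mL were treated with 10 μM compound for 30 min. Aliquots were heated for 3 min across 48°C-58°C, pooled, and extracted in PBS with 0.5% NP-40 at 4°C; soluble protein was the supernatant after 21,000xg for 90 min. Soluble protein was quantified by TMTpro 16plex LC-MS/MS with channel sums equalised, and reported as log2 fold change in thermal stability against DMSO controls, with values from duplicates.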

log2 fold change, inactive:
MTFR2 (UniProt Q6P444) 0.004
MRPS18A isoform 2 (UniProt Q9NVS2) 0.094
MTRF1L (UniProt Q9UGC7) 0.145
MT-ND5 (UniProt P03915) -0.002
MTRES1 (UniProt Q9P0P8) 0.03
MT-ND6 (UniProt P03923) -0.049
MRTO4 (UniProt Q9UKD2) -0.009
MTRR isoform 1 (UniProt Q9UBK8) -0.026
MRS2 (UniProt Q9HD23) -0.018
MRTFA (UniProt Q969V6) 0.01
MTA1 (UniProt Q13330) -0.048
MYCBP (UniProt Q99417) -0.021
MRPL9 (UniProt Q9BYD2) 0.115
MTA3 (UniProt Q9BTC8) 0.021
MT1G (UniProt P13640) 0.042
MTSS2 (UniProt Q765P7) 0.026
MYO1C (UniProt O00159) 0.061
MTR (UniProt Q99707) 0.145
MTCH2 (UniProt E9PIE4) -0.027
MTPN (UniProt P58546) 0.062
MT-CO2 (UniProt P00403) 0.002
MTFR1 (UniProt Q15390) -0.046
MUC1, A0A087WWM1 0.093
MSMO1 (UniProt Q15800) 0.082
MTMR2 (UniProt Q13614) 0
MRTFB isoform 5 (UniProt Q9ULH7) -0.031
MYL6 isoform 2 (UniProt P60660) 0.022
MYH9 (UniProt P35579) -0.083
MYH2 (UniProt Q9UKX2) 0.802
MSN (UniProt P26038) 0.009

Random excerpt: 2 entries already listed, in no set order.
log2 fold change, inactive:
MTFR2 (UniProt Q6P444) 0.004
MRPS18A isoform 2 (UniProt Q9NVS2) 0.094
